# According to the supplement of paper PMC8728848:
# The other results are listed elsewhere or left out.
# Legend:
# Assay in all cases: glycan array binding signal (z-score within array); higher = stronger binding
# Conditions in all cases: glycan notation: IUPAC condensed, linker removed
# Fuc(a1-2)Gal = biological target: Fuc(a1-2)Gal
# How it was run: (§1)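 The binding signal is a Z-score computed within each array. Data were drawn from 3228 arrays in the Consortium for Functional Glycomics database, restricted to those with a known protein sequence. Scores were averaged over arrays of the same protein sequence at different concentrations or buffers, and over linkers, and negative values can be taken as non-binding.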
# Fuc(a1-2)Gal(b1-3)GalNAc = biological target: Fuc(a1-2)Gal(b1-3)GalNAc
# How it was run: as §1
# [1] = biological target: Fuc(a1-2)Gal(b1-3)GalNAc(b1-3)Gal
# How it was run: as §1
# [2] = biological target: Fuc(a1-2)Gal(b1-3)GalNAc(b1-3)Gal(a1-4)Gal(b1-4)Glc
# How it was run: as §1
# [3] = biological target: Fuc(a1-2)Gal(b1-3)GalNAc(b1-4)[Neu5Ac(a2-3)]Gal(b1-4)Glc
# How it was run: as §1
# Fuc(a1-2)Gal(b1-3)GlcNAc = biological target: Fuc(a1-2)Gal(b1-3)GlcNAc
# How it was run: as §1
# [4] = biological target: Fuc(a1-2)Gal(b1-3)GlcNAc(b1-3)Gal(b1-4)Glc
# How it was run: as §1
# [5] = biological target: Fuc(a1-2)Gal(b1-3)[Fuc(a1-4)]GlcNAc
# How it was run: as §1
# Fuc(a1-2)Gal(b1-4)Glc = biological target: Fuc(a1-2)Gal(b1-4)Glc
# How it was run: as §1
# Fuc(a1-2)Gal(b1-4)Glc6S = biological target: Fuc(a1-2)Gal(b1-4)Glc6S
# How it was run: as §1
# Fuc(a1-2)Gal(b1-4)GlcNAc = biological target: Fuc(a1-2)Gal(b1-4)GlcNAc
# How it was run: as §1
# [6] = biological target: Fuc(a1-2)Gal(b1-4)GlcNAc(b1-2)Man(a1-3)[Fuc(a1-2)Gal(b1-4)GlcNAc(b1-2)Man(a1-6)]Man(b1-4)GlcNAc(b1-4)GlcNAc
# How it was run: as §1
# [7] = biological target: Fuc(a1-2)Gal(b1-4)GlcNAc(b1-2)Man(a1-6)[Gal(b1-4)GlcNAc(b1-2)Man(a1-3)]Man(b1-4)GlcNAc(b1-4)GlcNAc
# How it was run: as §1
# [8] = biological target: Fuc(a1-2)Gal(b1-4)GlcNAc(b1-3)Gal(b1-4)GlcNAc
# How it was run: as §1
# [9] = biological target: Fuc(a1-2)Gal(b1-4)GlcNAc(b1-3)Gal(b1-4)GlcNAc(b1-3)Gal(b1-4)GlcNAc
# How it was run: as §1
# [10] = biological target: Fuc(a1-2)Gal(b1-4)GlcNAc6S
# How it was run: as §1
# [11] = biological target: Fuc(a1-2)Gal(b1-4)[Fuc(a1-3)]GlcNAc
# How it was run: as §1
# [12] = biological target: Fuc(a1-2)Gal(b1-4)[Fuc(a1-3)]GlcNAc(b1-3)Gal(b1-4)[Fuc(a1-3)]GlcNAc
# How it was run: as §1
# [13] = biological target: Fuc(a1-2)Gal(b1-4)[Fuc(a1-3)]GlcNAc(b1-3)Gal(b1-4)[Fuc(a1-3)]GlcNAc(b1-3)Gal(b1-4)[Fuc(a1-3)]GlcNAc
# How it was run: as §1
# Fuc(a1-2)Gal6S(b1-4)Glc = biological target: Fuc(a1-2)Gal6S(b1-4)Glc
# How it was run: as §1
# [14] = biological target: Fuc(a1-2)Gal6S(b1-4)Glc6S
# How it was run: as §1
# [15] = biological target: Fuc(a1-2)Gal6S(b1-4)GlcNAc
# How it was run: as §1
# Fuc(a1-2)[Gal(a1-3)]Gal = biological target: Fuc(a1-2)[Gal(a1-3)]Gal
# How it was run: as §1
# [16] = biological target: Fuc(a1-2)[Gal(a1-3)]Gal(b1-3)GlcNAc
# How it was run: as §1
# [17] = biological target: Fuc(a1-2)[Gal(a1-3)]Gal(b1-4)Glc
# How it was run: as §1
# [18] = biological target: Fuc(a1-2)[Gal(a1-3)]Gal(b1-4)GlcNAc
# How it was run: as §1
# [19] = biological target: Fuc(a1-2)[Gal(a1-3)]Gal(b1-4)[Fuc(a1-3)]GlcNAc
# How it was run: as §1
# [20] = biological target: Fuc(a1-2)[Gal(a1-4)]Gal(b1-4)GlcNAc
# How it was run: as §1
# [21] = biological target: Fuc(a1-2)[GalNAc(a1-3)]Gal
# How it was run: as §1
# [22] = biological target: Fuc(a1-2)[GalNAc(a1-3)]Gal(b1-3)GlcNAc
# How it was run: as §1
# [23] = biological target: Fuc(a1-2)[GalNAc(a1-3)]Gal(b1-4)Glc
# How it was run: as §1
# [24] = biological target: Fuc(a1-2)[GalNAc(a1-3)]Gal(b1-4)GlcNAc
# How it was run: as §1
# [25] = biological target: Fuc(a1-2)[GalNAc(a1-3)]Gal(b1-4)[Fuc(a1-3)]GlcNAc
# How it was run: as §1
# [26] = biological target: Fuc(a1-2)[GalNAc(a1-4)]Gal(b1-4)GlcNAc
# How it was run: as §1
# [27] = biological target: Fuc(a1-2)[GalNAc(b1-3)]Gal
# How it was run: as §1
# Fuc(a1-3)GlcNAc = biological target: Fuc(a1-3)GlcNAc
# How it was run: as §1
# [28] = biological target: Fuc(a1-3)[Gal(b1-4)]Glc6S
# How it was run: as §1
binder,measurement,setting,value
"RfpC (Mycobacterium tuberculosum), O07747 (protein) MHHHHHHSSGRENLYFQGHMASKSAMAAGLVTASMSLSTAVAHAGPSPNWDAVAQCESGGNWAANTGNGKYGGLQFKPATWAAFGGVGNPAAASREQQIAVANRVLAEQGLDAWPTCGAASGLPIALWSKPAQGIKGS",glycan array binding signal (z-score),Fuc(a1-2)Gal,-1.03
same,glycan array binding signal (z-score),Fuc(a1-2)Gal(b1-3)GalNAc,-0.613
same,glycan array binding signal (z-score),[1],1.51
same,glycan array binding signal (z-score),[2],-0.686
same,glycan array binding signal (z-score),[3],-0.182
same,glycan array binding signal (z-score),Fuc(a1-2)Gal(b1-3)GlcNAc,0.092
same,glycan array binding signal (z-score),[4],0.546
same,glycan array binding signal (z-score),[5],0.273
same,glycan array binding signal (z-score),Fuc(a1-2)Gal(b1-4)Glc,0.855
same,glycan array binding signal (z-score),Fuc(a1-2)Gal(b1-4)Glc6S,2.16
same,glycan array binding signal (z-score),Fuc(a1-2)Gal(b1-4)GlcNAc,0.119
same,glycan array binding signal (z-score),[6],-0.663
same,glycan array binding signal (z-score),[7],0.208
same,glycan array binding signal (z-score),[8],0.201
same,glycan array binding signal (z-score),[9],0.53
same,glycan array binding signal (z-score),[10],-0.27
same,glycan array binding signal (z-score),[11],0.115
same,glycan array binding signal (z-score),[12],-1.41
same,glycan array binding signal (z-score),[13],1.76
same,glycan array binding signal (z-score),Fuc(a1-2)Gal6S(b1-4)Glc,-0.23
same,glycan array binding signal (z-score),[14],-0.156
same,glycan array binding signal (z-score),[15],0.663
same,glycan array binding signal (z-score),Fuc(a1-2)[Gal(a1-3)]Gal,-0.091
same,glycan array binding signal (z-score),[16],-0.784
same,glycan array binding signal (z-score),[17],0.195
same,glycan array binding signal (z-score),[18],-0.616
same,glycan array binding signal (z-score),[19],-1
same,glycan array binding signal (z-score),[20],-0.099
same,glycan array binding signal (z-score),[21],-0.02
same,glycan array binding signal (z-score),[22],-0.273
same,glycan array binding signal (z-score),[23],0.542
same,glycan array binding signal (z-score),[24],-0.005
same,glycan array binding signal (z-score),[25],0.314
same,glycan array binding signal (z-score),[26],0.699
same,glycan array binding signal (z-score),[27],0.437
same,glycan array binding signal (z-score),Fuc(a1-3)GlcNAc,-0.148
same,glycan array binding signal (z-score),[28],0.296
